PubChem BioAssay AID1224826, NIAID, 2016
Assay: 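Genes that change LPS-induced Tnf promoter activity in mouse macrophages when knocked down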 (primary screen). Cell system: RAW264.7 G9 macrophages from mouse bearing reporters for p65 (GFP) and the Tnf promoter (mCherry). Knock-down reagent: siRNA pool against mouse genes, 100 nM. Duration: 16 h of LPS stimulation, after 2 days of siRNA transfection. Conditions: bacterial lipopolysaccharide (Salmonella minnesota R595), 10 ng/ml. Detection: 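Nuclear mCherry signal of the Tnf promoter reporter measured by imaging after background removal, scaled to each plate median and turned into robust z-scores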. Reading the numbers: Tnf reporter robust z-score: higher = stronger Tnf promoter reporter signal after LPS. Rule for the call: 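a well counts as active at a score of -1.3 or below (Tlr4 knock-down control median) or above 3 (raised signal); controls and wells holding fewer than 50 cells are excluded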. Calls: active = Tnf reporter clearly lowered or raised; inactive = no clear change in Tnf reporter.
The deposit covers about 17,000 reagents; shown is an unselected part. About 1,110 of them (6.6%) were called active. 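Active means lowered or raised reporter signal; replicate intensities are raw and not normalised per plate.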 Entries without a mark were called inactive. Not all columns of the deposit are shown.

gene | Tnf reporter robust z-score | fewer than 50 cells in well
Grid1 | -1.43 (active) | enough cells in well
Sec61g | -1.14 | enough cells in well
Swt1 | -1.43 (active) | enough cells in well
Ccdc91 | 0.47 | enough cells in well
Scd3 | 2.74 | enough cells in well
Htr3b | -0.34 | enough cells in well
Adcy9 | -0.91 | enough cells in well
Usp4 | 0.77 | enough cells in well
Eef1a1 | -1.1 | enough cells in well
Cers4 | -0.26 | enough cells in well
Mllt6 | -0.24 | enough cells in well
Il18rap | -0.95 | enough cells in well
AY036118 | 0.97 | enough cells in well
Or4c107 | -0.59 | enough cells in well
Trpv6 | -0.04 | enough cells in well
Asrgl1 | 0.21 | enough cells in well
Rps8 | -1.31 (active) | enough cells in well
Sart1 | -1.18 | enough cells in well
Adam5 | -0.07 | enough cells in well
Irgc | -0.63 | enough cells in well
Rpe | 0.48 | enough cells in well
Hcfc1r1 | -1.37 (active) | enough cells in well
Chchd3 | 0.51 | enough cells in well
Zfp513 | 1.62 | enough cells in well
Siva1 | -0.49 | enough cells in well
Or5b96 | -0.15 | enough cells in well
Eif1b | -0.83 | enough cells in well
Ccdc163 | -0.14 | enough cells in well
Cbl | 1.47 | enough cells in well
Wfdc15b | 0.12 | enough cells in well
Trex1 | 0.36 | enough cells in well
Zfp36l2 | -1.34 (active) | enough cells in well
Wdr76 | 0.34 | enough cells in well
Ntmt1 | 1.03 | enough cells in well
Rubcnl | -0.1 | enough cells in well
Nudt7 | -0.35 | enough cells in well
Cyp4v3 | 0.08 | enough cells in well
Irx5 | 0.32 | enough cells in well
Nfatc2 | -0.52 | enough cells in well
Slc51a | -1.1 | enough cells in well

6 entries from above, limited to “fewer than 50 cells in well”:
Rubcnl = enough cells in well
Nudt7 = enough cells in well
Cyp4v3 = enough cells in well
Irx5 = enough cells in well
Nfatc2 = enough cells in well
Slc51a = enough cells in well
